Values quoted from earlier work, collected in article PMC11213733, “Computational approaches identify a transcriptomic fingerprint of drug-induced structural cardiotoxicity” (Cell Biology and Toxicology, 2024).
Counter-ions that a name gives are not always drawn.

Details: ref FDA label, cited from earlier work

In the case of `CCCCc1oc2ccccc2c1C(=O)c1cc(I)c(OCCN(CC)CC)c(I)c1` [Amiodarone HCl], the “Structural cardiotoxin?” value (FDA label references heart failure or a decrease in left ventricular ejection fraction) is listed as “Y” and the “Functional cardiotoxin?” value (compound annotation) is listed as “Y”.
